Numbering of substitutions follows the chain as printed. No constants are given. Whether binding was seen depends on the method and setting. Binding seen in cells or lysates may run through a third protein. Some binding calls cover weakened binding; strength is not graded here. Tags and fused reporters may be left off the sequences shown. Blank lines part the entries; values can stand above or below the binder they belong to.
Tests used:
[1] = target: T1, endogenous Rab11 (Drosophila (endogenous in S2 cells)) (UniProt O18335); experiment: co-IP; co-immunoprecipitation with anti-Rab11 antibodies from lysates of Drosophila S2 cells expressing Spn-F-myc or control GFP-myc; immunoblot
T1 sequence: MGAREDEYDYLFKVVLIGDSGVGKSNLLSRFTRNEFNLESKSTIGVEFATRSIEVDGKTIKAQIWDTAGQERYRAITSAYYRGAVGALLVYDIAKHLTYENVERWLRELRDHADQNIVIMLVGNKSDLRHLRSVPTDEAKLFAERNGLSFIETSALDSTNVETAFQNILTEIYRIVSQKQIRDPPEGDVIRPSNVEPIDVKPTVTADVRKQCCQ

[2] = target: T2, FLAG-Rab11-DN (Drosophila) (UniProt O18335); experiment: co-IP; lysates of co-transfected S2 cells (20 mM Tris pH 7.0, 150 mM NaCl, 2 mM EDTA, 1% TritonX-100, 1 mM DTT) incubated with anti-FLAG M2 agarose beads on ice, washed with lysis buffer; immunoblot
T2 sequence: T1 sequence with S25N

Spn-F-FLAG (Drosophila) = target: T3, Spn-F-FLAG (Drosophila) (UniProt Q9V9Y9); experiment: as above
T3 sequence: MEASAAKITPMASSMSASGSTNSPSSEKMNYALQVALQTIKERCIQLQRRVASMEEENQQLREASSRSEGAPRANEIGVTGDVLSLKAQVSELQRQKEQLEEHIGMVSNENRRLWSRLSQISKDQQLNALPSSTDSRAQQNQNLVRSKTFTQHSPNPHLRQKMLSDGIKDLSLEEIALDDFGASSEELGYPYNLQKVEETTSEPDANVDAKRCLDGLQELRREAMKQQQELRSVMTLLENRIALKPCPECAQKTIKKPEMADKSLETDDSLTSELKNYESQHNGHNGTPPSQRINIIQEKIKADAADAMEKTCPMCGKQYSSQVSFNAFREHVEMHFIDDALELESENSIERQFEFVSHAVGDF

- binding [1]: binds
- binding [2]: binds
B1: Spn-F-myc (protein, UniProt Q9V9Y9 1-364)
chain: T3 sequence

- binding [2]: binds
B2: SpnF-ΔC-myc (domain or fragment, UniProt Q9V9Y9 1-339)
chain: MEASAAKITPMASSMSASGSTNSPSSEKMNYALQVALQTIKERCIQLQRRVASMEEENQQLREASSRSEGAPRANEIGVTGDVLSLKAQVSELQRQKEQLEEHIGMVSNENRRLWSRLSQISKDQQLNALPSSTDSRAQQNQNLVRSKTFTQHSPNPHLRQKMLSDGIKDLSLEEIALDDFGASSEELGYPYNLQKVEETTSEPDANVDAKRCLDGLQELRREAMKQQQELRSVMTLLENRIALKPCPECAQKTIKKPEMADKSLETDDSLTSELKNYESQHNGHNGTPPSQRINIIQEKIKADAADAMEKTCPMCGKQYSSQVSFNAFREHVEMHFID

- binding (Spn-F-FLAG (Drosophila)): binds
B3: myc-Rab11-DN (protein, UniProt O18335 1-214)
chain: T1 sequence with S25N

From article PMC7046344
